Among all 300,000 compounds or so, about 3,700 (1.2%) were called active. The inconclusive results got no clear call from the source; some entries with a clear call stand among them for comparison. The call rests on the fitted dose curve; tested in HEK293 cells. Where the call is inconclusive, the potency comes from a doubtful curve fit.
assay: qHTS for Inhibitors of binding or entry into cells for Lassa Virus; details: Lassa virus pseudotype entry inhibition, cell reporter; activity change, negative = inhibition: at 37.9 µM (top of the series) unless noted; further: nearly all actives have a fitted effect of over 50% in size
On the % scale 0 is the no-effect control and ±100 the full control effect; potency means the concentration at half of the fitted maximal effect.

SMILES	Potency	activity change, negative = inhibition
CCOc1cc(/C=N/NC(=O)c2cccs2)ccc1OC(=O)N1CCOCC1	inconclusive: 35.5 µM [inhibitor, single point]	
Cc1ccccc1Nc1nc(N)nc(COC(=O)C2CCCCC2)n1		inactive: 5.08%
O=C(NCc1ccco1)C(c1ccco1)N(C(=O)Cn1nnc2ccccc21)c1ccc2c(c1)CCC2 (configuration not stated)	inconclusive: 0.398 µM [activator, partial curve, poor fit]	
COc1cc(/C=N/N2C(=O)C3C4c5ccccc5C(c5ccccc54)C3C2=O)ccc1O (configuration not stated)	active: 12.6 µM	
COc1ccc(OC)c(CCNC(=O)c2cc3c(=O)n(C)c4ccccc4c3n2C)c1	inconclusive: 11.2 µM [inhibitor, partial curve, poor fit]	
CC1(C)C/C(=N\O)c2cc3c(nc2C1)CCCC3		inactive: 1.64%
COC(=O)CSc1nc(C)cc(N2CCOCC2)n1		inactive: 27.6% [at 46.1 µM]
Clc1ccc(Cl)c(-c2nn3c(COc4ccccc4)nnc3s2)c1	inconclusive: 4.61 µM [inhibitor, partial curve, poor fit]	
Cn1c(=O)cc(SCC(=O)NCCCN2CCN(c3ccccc3F)CC2)c2ccccc21	inconclusive: 23.1 µM [inhibitor, single point]	
CCOc1ccc(NC(=O)CN2CCN(c3ccc(Cl)cc3)CC2)cc1	inconclusive: 7.08 µM [inhibitor, partial curve, poor fit]	
CC(=O)c1ccc(OC(=O)N2CCOCC2)cc1	inconclusive: 0.794 µM [inhibitor, single point]	
O=C(CCC1CCCN(C(=O)c2cccs2)C1)N1CCN(c2ccccn2)CC1 (configuration not stated)	inconclusive: 11.2 µM [inhibitor, partial curve, poor fit]	
Cc1ccccc1-n1ncc2c(SCC(=O)NCc3cccs3)ncnc21	inconclusive: 12.6 µM [inhibitor, partial curve]	
O=C(NCc1ccccn1)C(=O)N/N=C/c1ccccc1O	inconclusive: 1.12 µM [inhibitor, partial curve, poor fit]	
O=C(c1ccccc1)N1CCCC(c2ccc(Cl)cc2)=N1	inconclusive: 20.6 µM [inhibitor, single point]	
Cc1onc(-c2ccccc2Cl)c1C(=O)N1CCC(Cc2ccccc2)CC1	inconclusive: 35.5 µM [inhibitor, single point]	
O=C(CN1C(=O)C2C3C=CC(C3)C2C1=O)OCC(=O)c1ccc(Cl)c([N+](=O)[O-])c1 (configuration not stated)	inconclusive: 3.98 µM [inhibitor, single point]	
Cc1cc(OCC(=O)N(C)C2CCCCC2)ccc1Cl	inconclusive: 12.6 µM [inhibitor, partial curve, poor fit]	
CC(=O)Nc1ccccc1C(F)(F)F		inactive: 4.73%
COc1ccccc1NC(=O)CN(c1ccc(C23CC4CC(CC(C4)C2)C3)cc1)S(C)(=O)=O	inconclusive: 18.3 µM [inhibitor, single point]	
CCn1nc([N+](=O)[O-])c2c(-c3nc4ccccc4o3)c(N)n(CCCOC)c2c1=O	inconclusive: 35.5 µM [inhibitor, single point]	

Ordered by number of heavy atoms (rising): nine of the compounds above.
SMILES	Potency	activity change, negative = inhibition
CC(=O)c1ccc(OC(=O)N2CCOCC2)cc1	inconclusive: 0.794 µM [inhibitor, single point]	
O=C(NCc1ccccn1)C(=O)N/N=C/c1ccccc1O	inconclusive: 1.12 µM [inhibitor, partial curve, poor fit]	
Clc1ccc(Cl)c(-c2nn3c(COc4ccccc4)nnc3s2)c1	inconclusive: 4.61 µM [inhibitor, partial curve, poor fit]	
CCOc1ccc(NC(=O)CN2CCN(c3ccc(Cl)cc3)CC2)cc1	inconclusive: 7.08 µM [inhibitor, partial curve, poor fit]	
Cc1ccccc1-n1ncc2c(SCC(=O)NCc3cccs3)ncnc21	inconclusive: 12.6 µM [inhibitor, partial curve]	
O=C(CCC1CCCN(C(=O)c2cccs2)C1)N1CCN(c2ccccn2)CC1 (configuration not stated)	inconclusive: 11.2 µM [inhibitor, partial curve, poor fit]	
COc1ccc(OC)c(CCNC(=O)c2cc3c(=O)n(C)c4ccccc4c3n2C)c1	inconclusive: 11.2 µM [inhibitor, partial curve, poor fit]	
COc1cc(/C=N/N2C(=O)C3C4c5ccccc5C(c5ccccc54)C3C2=O)ccc1O (configuration not stated)	active: 12.6 µM	
COc1ccccc1NC(=O)CN(c1ccc(C23CC4CC(CC(C4)C2)C3)cc1)S(C)(=O)=O	inconclusive: 18.3 µM [inhibitor, single point]	

Next entries follow.

SMILES	Potency	activity change, negative = inhibition
O=C(Cc1coc2ccc3ccccc3c12)NC1CCCc2ccccc21 (configuration not stated)	inconclusive: 35.5 µM [inhibitor, single point]	
Cc1cc(C)c(S(=O)(=O)Oc2ccccc2[N+](=O)[O-])c(C)c1	active: 3.16 µM	
COc1ccc([C@H]2C[C@H](n3cc(COC(=O)c4ccccc4)nn3)[C@@H](O)CN2CC2CCCCC2)cc1	inconclusive: 9.95 µM [inhibitor, partial curve, poor fit]	
CC(CCc1ccc(O)cc1)NCCC(c1ccccc1)c1ccccc1 (configuration not stated)	inconclusive: 10 µM [inhibitor, partial curve, poor fit]	
O=C(COC(=O)Cc1n[nH]c(=O)c2ccccc12)NNC(=O)c1ccc(Cl)cc1		inactive: 0.983%
O=C(Cn1c(=O)nc(-c2ccccc2)c2cc(Cl)ccc21)NCCc1ccccc1	inconclusive: 1.26 µM [inhibitor, partial curve, poor fit]	
Cn1c(=O)n(C)c2cc(NC(=O)c3ccc(F)cc3)c(Br)cc21	inconclusive: 0.891 µM [inhibitor, full curve, poor fit]	
CC(=O)N1N=C(c2cccc(NS(=O)(=O)c3ccc(C)cc3)c2)CC1c1ccco1 (configuration not stated)	inconclusive: 10 µM [inhibitor, partial curve, poor fit]	
c1ccc(-c2nc3nonc3c3nc4ccccc4n23)cc1		inactive: -12.4%
COc1ccc(-c2cc3nc(C)c(CCC(=O)NC(C)CCc4ccco4)c(C)n3n2)c(OC)c1 (configuration not stated)	inconclusive: 16.4 µM [inhibitor, single point]	
O=C(/C=C/c1ccco1)OCc1nnc(-c2ccc(Cl)cc2)o1		inactive: -2.12%
CN(C)CCOC1(Cc2ccc(F)cc2)CCC(C(C)(C)C)CC1 (configuration not stated)	inconclusive: 10 µM [inhibitor, partial curve, poor fit]	
O=C(CCn1c(=O)sc2ccccc21)Nc1cccnc1		inactive: -4.06%
CCCCOC(=O)c1ccc(N/C(=N\S(=O)(=O)c2ccccc2)c2ccccc2)cc1	inconclusive: 10.3 µM [inhibitor, partial curve, poor fit]	
CC1=C(C(=O)OC2CCCCCC2)C(c2ccc(Cl)cc2)CC(=O)N1 (configuration not stated)	inconclusive: 2.82 µM [inhibitor, single point]	
CN1CCN(S(=O)(=O)c2cccc(C(=O)Nc3cc(C(N)=O)cc(C(N)=O)c3)c2)CC1		inactive: 5.16% [at 46.1 µM]
O=C(c1cnn2c(C(F)(F)F)cc(-c3cccs3)nc12)N1CCN(Cc2ccccc2)CC1	inconclusive: 35.5 µM [inhibitor, single point]	
Cc1ccc(Nc2cc(C)nc3c(C)cccc23)cc1		inactive: 3.23% [at 46.1 µM]
CC(O)C(NS(=O)(=O)c1ccc(Cl)cc1)C(=O)OCC(=O)Nc1cccnc1Cl (configuration not stated)	inconclusive: 0.891 µM [activator, partial curve, poor fit]	
CCOc1cc(C2C(C(=O)OC)=C(C)NC3=C2C(=O)c2ccccc23)cc(Br)c1OCC (configuration not stated)		inactive: -4.71% [at 46.1 µM]
CC(C)COC(=O)c1ccc(NC(=O)C2C3CCC(C3)C2C(=O)O)cc1 (configuration not stated)		inactive: -16.2%
